For this assay, the target named is CD317 (human (endogenous in Hela)) (UniProt Q10589). The assay is described as follows: co-IP; Hela cells cultured in normal or serum-deprivation condition for 24 h; lysates immunoprecipitated with anti-CD317 or control Ig; Western blot of precipitates and lysates. In general terms: A western blot detects proteins with antibodies after separation by electrophoresis.

Chains of the proteins cited; added tags and fusions are not shown. Lines headed by an entry give the natural chain unless they say otherwise; changes in a name come on top. Residues count along the entry.
UniProt Q10589, residues 1-161: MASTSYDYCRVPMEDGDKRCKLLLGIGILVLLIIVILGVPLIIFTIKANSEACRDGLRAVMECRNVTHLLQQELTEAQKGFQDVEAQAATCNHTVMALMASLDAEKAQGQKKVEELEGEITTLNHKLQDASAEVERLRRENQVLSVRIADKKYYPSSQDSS
UniProt O95831: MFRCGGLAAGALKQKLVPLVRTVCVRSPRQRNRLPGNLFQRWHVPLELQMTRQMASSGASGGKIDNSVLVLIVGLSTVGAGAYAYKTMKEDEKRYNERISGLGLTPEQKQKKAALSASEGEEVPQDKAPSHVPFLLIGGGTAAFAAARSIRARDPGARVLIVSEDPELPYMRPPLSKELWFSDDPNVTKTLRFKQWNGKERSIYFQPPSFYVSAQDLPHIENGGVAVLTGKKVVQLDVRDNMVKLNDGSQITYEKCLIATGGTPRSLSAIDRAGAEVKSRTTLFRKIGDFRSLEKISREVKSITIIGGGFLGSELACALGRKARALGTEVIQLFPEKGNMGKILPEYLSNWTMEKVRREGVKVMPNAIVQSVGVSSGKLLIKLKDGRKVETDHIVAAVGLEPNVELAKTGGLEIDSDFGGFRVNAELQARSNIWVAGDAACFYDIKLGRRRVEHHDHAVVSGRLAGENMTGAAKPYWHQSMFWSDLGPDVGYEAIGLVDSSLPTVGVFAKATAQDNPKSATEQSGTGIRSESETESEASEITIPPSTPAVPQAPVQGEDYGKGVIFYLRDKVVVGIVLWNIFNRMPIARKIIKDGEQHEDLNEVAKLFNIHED

These are yes or no findings as the source states them, for the method shown. Binding seen in cells or lysates may run through a third protein.

For “apoptosis-inducing factor (from UniProt O95831)”, the binding result is “no binding”.
